# About 4,300 (3.1%) of roughly 140,000 compounds were called active. The shares of active, inactive and inconclusive entries below differ from those in the screen.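 The calls were made as follows: active = readout at or below -70, meaning at least 70% loss of cells showing the perinucleolar compartment, a nuclear body marking cancer cells; inconclusive = readout between -30 and a set limit; inactive = the rest.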
# Test: High Content Assay for Compounds that inhibit the Assembly of the Perinucleolar Compartment;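 also: plate controls were DMSO wells for no effect and camptothecin positive control wells for full effect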
# Conditions: PC3M PTB-GFP, PNC prevalence imaging, 16 h; at 10 µM; active compounds read low
# Outline: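 PC3M cells stably expressing PTB-GFP, 750–1000 cells/well, treated 16 h at 37 °C with compound (23 nl of library stock), in duplicate. After paraformaldehyde fixation and Hoechst stain, imaged at 20x; PNC prevalence scored by image analysis.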
row,Structure (SMILES),"activity change (PNC), negative = inhibition"
1,O=C(C1CCCN(S(=O)(=O)c2cccc3nonc23)C1)N1CCN(c2ccccc2Cl)CC1 (configuration not stated),inactive: -20.7%
2,CC(C)C(=O)Nc1ccc(C(=O)NCc2cccnc2)cc1,inconclusive: -48.9%
3,COC(=O)c1ccccc1NC(=O)CSc1nnnn1-c1ccc(C)cc1C,inactive: -6.45%
4,COc1ccc(/C=C/C(=O)c2cc(F)ccc2OC(=O)c2ccccc2C)cc1OC,active: -88%
5,Cc1cc(=O)[nH]c(SCc2nnc(-c3ccccc3)o2)n1,inactive: 33.4%
6,CCOc1ccc(OCC)c(NC(=O)CSCC(=O)O)c1,inactive: -25.8%
7,Cc1ccc(Nc2nnc(C3C(=O)N(C)C4(C)CC3c3cc(Br)ccc3O4)s2)cc1 (configuration not stated),inconclusive: -45%
8,O=C(NC1CCN(Cc2ccccc2)CC1)c1ccccc1F,inconclusive: -50%
9,CC(C)Oc1cccc(C(=O)Nc2ccc(CN3CCOCC3)cc2)c1,inconclusive: -63%
10,Cc1ccccc1C(=O)NC1CCN(Cc2nnnn2CCc2ccccc2)CC1,inconclusive: -32.1%
11,O=C1/C(=C/c2ccc([N+](=O)[O-])cc2)C=C(c2ccccc2)N1c1ccc(O)cc1,inconclusive: -44.9%
12,COC(=O)CCS(=O)(=O)c1ccc(NC(C)=O)cc1,inactive: -11.2%
13,O=C1N(Cc2ccccc2)CCCC12CCCN(Cc1ccccc1)C2=O,inconclusive: -49.8%
14,COc1cc(C(=O)NCCCNc2ccc([N+](=O)[O-])cc2)cc(OC)c1OC,inactive: 4.98%
15,Cc1ccc(S(=O)(=O)N2c3cc(C)ccc3OCC2C(C)(C)C)cc1 (configuration not stated),inconclusive: -41.2%
16,CCN(CC)C(=S)SCC(=O)c1ccc(Br)cc1,inactive: 24%
17,COC(=O)c1cccc(C(=O)Nc2cnc3ccccc3c2)n1,inconclusive: -55.3%
18,CCC(=O)Nc1ccc(S(=O)(=O)Nc2ccc(Cl)nn2)cc1,active: -80.5%
19,Cc1ccc(C)c2[nH]c(=O)c(CCNC(=O)C(C)C)cc12,inconclusive: -51.8%
20,CC(C)C(=O)NC(=S)Nc1ccccc1C(F)(F)F,inconclusive: -45.4%
21,OC(COCc1ccc2c(c1)OCO2)CN1CCN(Cc2ccccc2)CC1 (configuration not stated),inconclusive: -49.8%
22,c1csc(CNCCCN2CCOCC2)c1,inactive: 1.31%
23,Cc1ccc(S(=O)(=O)N(CC(=O)N=Nc2c(O)[nH]c3ccccc23)c2cccc(C)c2)cc1,inconclusive: -74.4%

row,Structure (SMILES),"activity change (PNC), negative = inhibition"
1,CN(C)c1ccc(N/C=C/C(=O)c2ccco2)cc1,inconclusive: -37.2%
2,CCOC(=O)N1CCN(S(=O)(=O)c2ccc(C(=O)Nc3ccc(F)cc3F)cc2)CC1,inconclusive: -72.1%
3,Cc1ccc(C)c(/C(O)=C2\C(=O)C(=O)N(CCCn3ccnc3)C2c2ccncc2)c1 (configuration not stated),inactive: 23.7%
4,Cn1c(SCc2nc3ccccc3[nH]2)nnc1-c1ccccn1,inconclusive: -44.5%
5,O=C(CCc1ccccc1)NC(=S)Nc1ccc(S(=O)(=O)N2CCOCC2)cc1,inconclusive: -30.6%
6,CCc1ccc(C2CC(c3ccco3)=NN2S(C)(=O)=O)cc1 (configuration not stated),inactive: 41%
7,CCOC(=O)c1c(C)[nH]c(C(=O)OCC(=O)N2CC(C)OC(C)C2)c1C (configuration not stated),inconclusive: -35.3%
8,CN1C(=O)/C(=C/c2ccccc2OCc2cccc(F)c2)NC1=S,inactive: 28%
9,CC(=O)c1ccc(NC(=O)Nc2ccc([N+](=O)[O-])cc2C)cc1,inactive: -13%
10,Cc1ccc(C(=O)CSc2ccccn2)cc1,inactive: 14.4%
11,Cc1ccc(S(=O)(=O)N(C)CC(=O)Nc2ccncc2)cc1,inconclusive: -34.4%
12,CC(=O)c1cccc2c(O)c(C3=Nc4ccccc4C3=O)[nH]c12,inactive: -22.2%
13,COc1ccc(-c2nc(SC)n(S(=O)(=O)c3ccccc3)n2)cc1,inconclusive: -46.8%
14,Cc1nc2ccccc2cc1OCc1ccc(F)cc1,inactive: 41.2%
15,Cc1ccc(S(=O)(=O)N=Nc2c(O)[nH]c3ccccc23)cc1,inactive: 9.42%
16,CCOC(=O)c1[nH]cc(-c2ccccc2)c1N1CCOCC1,inactive: -13.7%
17,Cc1noc(N)c1C(=O)Nc1ccccc1F,inconclusive: -63.1%
18,OCCN(Cc1ccccc1)Cc1cccc(C(F)(F)F)c1,inconclusive: -35%
19,CCOC(=O)c1ccc(NC(=S)N2CCSC2c2ccc(Br)cc2)cc1 (configuration not stated),inactive: -27.5%
20,CCn1c(SCC(=O)N2CCCc3ccccc32)nc2cccnc21,inconclusive: -68.4%
21,CSc1nc(Oc2ccc(Cl)cc2)c2sccc2n1,inconclusive: -59.3%
22,CC(=O)Nc1ccn(-c2ccccc2)n1,active: -119%
23,Cc1nnc(N2CCN(Cc3ccccc3)CC2)[nH]c1=O,inconclusive: -36.7%

# Taken from the results shown (7 entries):
row,Structure (SMILES),"activity change (PNC), negative = inhibition"
14,Cc1nc2ccccc2cc1OCc1ccc(F)cc1,inactive: 41.2%
15,Cc1ccc(S(=O)(=O)N=Nc2c(O)[nH]c3ccccc23)cc1,inactive: 9.42%
16,CCOC(=O)c1[nH]cc(-c2ccccc2)c1N1CCOCC1,inactive: -13.7%
17,Cc1noc(N)c1C(=O)Nc1ccccc1F,inconclusive: -63.1%
18,OCCN(Cc1ccccc1)Cc1cccc(C(F)(F)F)c1,inconclusive: -35%
19,CCOC(=O)c1ccc(NC(=S)N2CCSC2c2ccc(Br)cc2)cc1 (configuration not stated),inactive: -27.5%
20,CCn1c(SCC(=O)N2CCCc3ccccc32)nc2cccnc21,inconclusive: -68.4%

# More results:

row,Structure (SMILES),"activity change (PNC), negative = inhibition"
1,CCCn1nnc(NC(=O)c2ccc(Cl)cc2Cl)n1,inactive: -25.7%
2,C/C(=N\NC(=O)c1ccc(C)cc1C)c1ccc2c(c1)OCO2,inconclusive: -32%
3,O=C(C1=COCCO1)N1CCN(S(=O)(=O)c2cccc(Cl)c2Cl)CC1,inactive: -6%
4,COc1cccc(CC(=S)N2CCOCC2)c1,inconclusive: -43.5%
5,COc1ccccc1C(=O)NCCn1cc(SCC(=O)Nc2nnc(C)s2)c2ccccc21,inconclusive: -72.8%
6,CC(C)CN(C(=O)CN1CCN(c2ccccc2O)CC1)c1c(N)n(CC(C)C)c(=O)[nH]c1=O,active: -86.1%
7,OC(COc1ccc2c(c1)OCO2)CN1CCc2ccccc2C1 (configuration not stated),inconclusive: -31.6%
8,CCCC(=O)Nc1cc(S(=O)(=O)N(CC)CC)ccc1Cl,inactive: -18.8%
9,Nn1c(SCC(=O)Nc2ccc(F)cc2)nnc1-c1cccnc1,inconclusive: -54.5%
10,CN(C)CCNc1ncnc2c1cnn2-c1ccc(Cl)cc1,inconclusive: -33.5%
11,CC(C)OC(=O)c1nnn(-c2nonc2N)c1CSc1ccccn1,inactive: -3.45%
12,CCCc1nc2ccccc2c(=O)n1/N=C/c1ccc(O)cc1O,inconclusive: -36.8%
13,COc1cc(C2NC(=O)NC(O)(C(F)(F)F)C2C(=O)c2cccs2)ccc1O (configuration not stated),inactive: 3.14%
14,COC(=O)c1sc(S(=O)(=O)N2CCC(C(=O)O)CC2)c(C(=O)OC)c1C,inactive: -4.33%
15,COc1ccc(CN2C(=O)[C@@H]3C(c4ccc(F)cc4)=NO[C@@H]3C2=O)cc1,inconclusive: -42.7%
16,Cc1ccc2nc(-c3ccc(NC(=O)COC(=O)c4ccco4)cc3)sc2c1,inconclusive: -50.2%
17,CCOC(=O)c1[nH]cnc1C(=O)O,inconclusive: -33.5%
18,Cc1cccc(N2CCN(C(=O)Cn3ccc4ccccc4c3=O)CC2)c1C,inconclusive: -67.5%
19,CSCCC(NC(=O)c1ccc([N+](=O)[O-])cc1Cl)C(=O)OCC(=O)C12CC3CC(CC(C3)C1)C2 (configuration not stated),inconclusive: -38.8%
20,CCOc1cc(-c2cc(-c3ccc(N)cc3)nc(N)c2C#N)ccc1O,inactive: 65.8%
21,CN1C(=O)c2c(sc3c2CCCC3)NC1c1ccccc1O (configuration not stated),inconclusive: -32.3%
22,COc1cccc(/C=C2\C(=O)N(c3cccc(C)c3)C(=O)c3ccccc32)c1,inconclusive: -32.4%
23,CC1CC(NC(=O)CCn2c(=O)oc3ccccc32)CC(C)(C)C1 (configuration not stated),inconclusive: -53.6%

row,Structure (SMILES),"activity change (PNC), negative = inhibition"
1,CC(C)C(c1nnnn1C(C)(C)C)N1CCC(Cc2ccccc2)CC1 (configuration not stated),inactive: 29.9%
2,Cc1ccc(S(=O)(=O)Cn2nnnc2C(CC(C)C)N2CCN(c3ccc(F)cc3)CC2)cc1 (configuration not stated),active: -115%
3,CC(=O)Nc1cccc(NC(C)=O)n1,active: -119%
4,COc1nn(C(C)C(=O)N2N=C(C(F)F)CC2(O)C(F)F)cc1[N+](=O)[O-] (configuration not stated),inconclusive: -43.3%
5,Cc1cccc(-n2c(-c3ccco3)n[nH]c2=S)c1,inconclusive: -30.4%
6,COCCNC(=O)C(c1ccncc1)N(C(=O)Cn1nnc2ccccc21)c1ccc(OC)cc1 (configuration not stated),inconclusive: -67.5%
7,CCOC(=O)Nc1nc(-c2ccccc2)c(C(=O)c2ccc(Cl)cc2)s1,inconclusive: -76.7%
8,CCOC(=O)c1c(NC(=O)c2cccs2)sc2c1CCC2,inconclusive: -35.1%
9,Cc1cc(C)c(S(=O)(=O)c2ccccc2C)c(OCC(C)(C)C)n1,inconclusive: -35.7%
10,CCCc1c(C)nc2ccccc2c1SCCC#N,inconclusive: -35%
11,O=C(NCCC1=CCCCC1)C(=O)NCC1OCCCN1S(=O)(=O)c1ccccc1 (configuration not stated),inconclusive: -48.8%
12,O=C(CSc1nnnn1C1CCCC1)N1CCCc2ccccc21,inconclusive: -57.3%
13,c1ccc(OCc2nn3c(-c4ccccn4)nnc3s2)cc1,inactive: 20.2%
14,COc1cccc(NC(=O)CN2CCC(C)CC2)c1,inactive: 17.4%
15,O=C(NCc1ccccc1)C1CCN(C(=O)NCc2ccccc2)CC1,inconclusive: -40.6%
16,COCCCNC(=S)N1CCN(C(=O)C(=O)Nc2ccc(C(=O)OC)cc2)CC1,inconclusive: -63.2%
17,C/C(=N\NC(=O)C(N)=O)c1ccc(Br)cc1,inactive: -2.27%
18,N#C/C(=C\c1ccc(-c2cccc(C(F)(F)F)c2)o1)C(=O)Nn1cnnc1,inactive: -29.3%
19,CCN(CC)c1ccc(N2C(=O)/C(=C/c3cccnc3)SC2=S)cc1,inactive: 81.5%
20,O=C(Nc1cccc(-c2nc3ncccc3o2)c1)c1sc2cc(Cl)ccc2c1Cl,inconclusive: -44.3%
21,O=C(Cn1cc(C(F)(F)F)ccc1=O)N/N=C/c1cccc(Cl)c1,inconclusive: -56.5%
22,COc1ccc(S(=O)(=O)Nc2nc3ccccc3s2)cc1,inactive: 29.6%
23,CC(Sc1ccc(Cl)cc1)C(=O)Nc1ccc2c(c1)OCO2 (configuration not stated),inconclusive: -39.8%

# Source: PubChem BioAssay AID2417 (National Center for Advancing Translational Sciences (NCATS), 2010)
